Source: patent US4550078A, “Method for the quantitative determination of individual polyamine components in a mixture” (Amano Seiyaku Kabushiki Kaisha, priority 1982, dated 1985)

Experiments:
[1] = Example 4: determination of 6 polyamines in a known mixture with control plasma solution, steps A3 to F3; conditions: expected 40 μM each
[2] = Example 1: determination of 7 polyamines in a known aqueous mixture, steps A1 to G1; conditions: calculated concentration 20.0 μM each
[3] = Example 11: alternative analysis of human urine with acid deacetylation, steps A10 to F10
[4] = Example 6: determination of 4 polyamines in a known mixture of 7, steps A5 to D5; conditions: expected 20.0 μM each
[5] = Example 7: determination of 4 polyamines in a known mixture of 7, steps A6 to D6; conditions: expected 20.0 μM each
[6] = Example 5: determination of 5 polyamines in a known mixture, steps A4 to E4; conditions: expected 10.0 μM each

Row | SMILES | molar concentration found in the photometric solution [1] [µM] | molar concentration found in the photometric solution [2] [µM] | Concentration in the urine [3] [µM] | molar concentration found in the photometric solution [4] [µM] | molar concentration found in the photometric solution [5] [µM] | molar concentration found in the photometric solution [6] [µM]
1 | NCCCCNCCCN [spermidine] | 39.4 | 20.0 | 3.2 | 20.3 | 20.0 | 10.1
2 | NCCCCN [putrescine] | 39.5 | 20.0 | 4.1 | 19.7 | 20.0 | 10.1
3 | CC(=O)NCCCCNCCCN [N^8 -acetylspermidine] | 38.7 | 19.2 | – | – | 19.2 | 9.6
4 | NCCCNCCCCNCCCN [spermine] | 40.0 | 20.0 | 2.4 | 19.8 | 20.0 | 10.0
